In PubChem BioAssay AID248 (DTP/NCI, 2004):
The list is a part of this screen's results and no random one: it is rich in T/C values a quarter to a half above the control, in often repeated tests (any T/C) and in doses without a T/C. Further doses and runs are listed elsewhere. T/C: endpoint of the treated group in % of that of the vehicle group. Some doses have a count of surviving animals in place of a T/C: the source holds a T/C of zero for them, seemingly a mark for toxic or unscored doses. Some doses without a T/C left all or most animals alive at the check, yet need not have been tolerated: the source hardly ever lists a survival T/C far under the control, and the zero likely stands for such cases as well. Counts of survivors are from the toxicity check (mostly the fifth day) where no day follows; animals may have died later. Schedule codes are those of the source, taken here to give the interval after Q, in days (D) or hours (H), and the number of doses after X. Some entries were tested several times; the values are given in rising order. Some schedules carry Z or #; the key to these is not given. Where survival is the endpoint, the PubChem record calls one and a half times the control and up active, and a quarter to a half above the control has no call in these data; cut-offs in other NCI protocols can differ.

Test system: L1210 leukemia ip in BDF1 mice, survival T/C
Test: NCI In Vivo Anticancer Drug Screen. Data for tumor model L1210 Leukemia (intraperitoneal) in B6D2F1 (BDF1) mice
Details: T/C endpoint: mean survival time, higher T/C = longer survival
[1] = dose: 200.0 mg/kg/injection, schedule: Q04DX003 (ip), vehicle: saline
[2] = dose: 400.0 mg/kg/injection, schedule: Q04DX003 (ip), vehicle: saline
[3] = dose: 400.0 mg/kg/injection, schedule: Q01DX001 (ip), vehicle: saline
[4] = dose: 400.0 mg/kg/injection, schedule: Q01DX009 (ip), vehicle: Klucel (hydroxypropylcellulose) (HPC)
[5] = dose: 100.0 mg/kg/injection, schedule: Q01DX009 (ip), vehicle: Klucel (hydroxypropylcellulose) (HPC)
[6] = dose: 200.0 mg/kg/injection, schedule: Q01DX009 (ip), vehicle: Klucel (hydroxypropylcellulose) (HPC)
[7] = dose: 200.0 mg/kg/injection, schedule: Q04DX003 (ip), vehicle: saline with Tween-80
[8] = dose: 400.0 mg/kg/injection, schedule: Q04DX003 (ip), vehicle: saline with Tween-80
[9] = dose: 400.0 mg/kg/injection, schedule: Q04DX002 (ip), vehicle: Klucel (hydroxypropylcellulose) (HPC)

`C[P+](Cc1ccccc1)(c1ccccc1)c1ccccc1` was tested, and the survivor count (dose: 9.5 mg/kg/injection, schedule: Q01DX001 (ip), vehicle: other) was 0 of 6, the survivor count (dose: 19.0 mg/kg/injection, schedule: Q01DX001 (ip), vehicle: other) was 1 of 6 and the survivor count (dose: 38.0 mg/kg/injection, schedule: Q01DX001 (ip), vehicle: other) was 0 of 6. The survivor count (dose: 75.0 mg/kg/injection, schedule: Q01DX001 (ip), vehicle: other) was 0 of 6, the survivor count (dose: 150.0 mg/kg/injection, schedule: Q01DX001 (ip), vehicle: other) was 0 of 6 and the survivor count (dose: 300.0 mg/kg/injection, schedule: Q01DX001 (ip), vehicle: other) was 0 of 6.
For `Nc1ncnc2c1ncn2C1OC(CO)CC1O` (stereo not drawn), the T/C (dose: 150.0 mg/kg/injection, schedule: Q01DX Z (ip), vehicle: carboxymethylcellulose (CMC)) was 132 % of control, the survivor count (dose: 600.0 mg/kg/injection, schedule: Q01DX Z (ip), vehicle: carboxymethylcellulose (CMC)) was 3 of 6 and the survivor count (dose: 1200.0 mg/kg/injection, schedule: Q01DX Z (ip), vehicle: carboxymethylcellulose (CMC)) was 0 of 6.
For `NOCc1c(F)c(F)c(F)c(F)c1F`, the survivor count (dose: 400.0 mg/kg/injection, schedule: Q04DX003 (ip), vehicle: saline sonified) was 4 of 6.
`CC(C)N=Cc1ccccc1O.CC(C)N=Cc1ccccc1O.[Ni]` was tested, and the survivor count [1] was 2 of 6 and the survivor count [2] was 0 of 6.
With `NC(=O)CS` the survivor count [3] was 1 of 4.
With `[CH3][Sn]([CH3])([Br])[CH2]CCCBr` the survivor count (dose: 50.0 mg/kg/injection, schedule: Q01DX009 (ip), vehicle: saline) was 0 of 3, the survivor count (dose: 100.0 mg/kg/injection, schedule: Q01DX009 (ip), vehicle: saline) was 0 of 3 and the survivor count (dose: 200.0 mg/kg/injection, schedule: Q01DX009 (ip), vehicle: saline) was 0 of 3.
`Cc1cc(C)cc(OCC2C(COC(=O)c3cccc(Cl)c3)c3ccccc3N2C)c1` (stereo not drawn) was tested, and the survivor count [4] was 4 of 6.
With `Nc1ccccc1CSc1nc2nc[nH]c2c(=O)[nH]1` the survivor count [5] was 3 of 6, the survivor count [6] was 0 of 6 and the survivor count [4] was 0 of 6.
In the case of `Nc1nc(N)c2nc(CNc3ccc(S(=O)(=O)NC(CCC(=O)O)C(=O)O)cc3)cnc2n1` (stereo not drawn), the T/C [5] is reported as 127 % of control.
With `CC1CN(Cl)C(=O)N(Cl)C1=O` (stereo not drawn) the survivor count (dose: 5.0 mg/kg/injection, schedule: Q01DX001 (ip), vehicle: saline) was 1 of 6 and the survivor count (dose: 80.0 mg/kg/injection, schedule: Q01DX001 (ip), vehicle: saline) was 3 of 6.
With `COC(=O)C(CSCSC)NC(=O)/C=C/c1ccc(C)cc1` (stereo not drawn) the survivor count [7] was 6 of 6.
In the case of `Nc1cc(=O)[nH]c(O)c1C(=O)O`, the survivor count [7] is reported as 3 of 6 and the survivor count [8] is reported as 6 of 6.
For `CSc1ncnc2c1ncn2-n1cccc1`, the survivor count [8] was 2 of 6.
For `CC(C)C(=O)NNCc1ccccc1`, the survivor count [6] was 0 of 6.
`CCOC(=O)c1ccccn1` was tested, and the survivor count [3] was 0 of 4.
With `CC(O)C(NCNC(=O)C1=C(O)C2(O)C(=O)C3=C(O)c4c(O)cccc4C(C)(O)C3CC2C(N(C)C)C1=O)C(=O)O` (stereo not drawn) the survivor count (dose: 112.0 mg/kg/injection, schedule: Q01DX Z (ip), vehicle: saline) was 6 of 6 and the T/C (dose: 960.0 mg/kg/injection, schedule: Q01DX Z (ip), vehicle: saline) was 126 % of control.
For `COC1=C(Nc2ccc(C)cc2)C(=O)C(OC)=C(Nc2ccc(C)cc2)C1=O`, the survivor count [3] was 4 of 4.
`COCCc1cccc(C)n1` was tested, and the survivor count (dose: 400.0 mg/kg/injection, schedule: Q01DX009 (ip), vehicle: saline) was 0 of 6.
In the case of `CCN(CC)CCCC(C)NC/C=C/CNC(C)CCCN(CC)CC` (stereo not drawn), the survivor count (dose: 50.0 mg/kg/injection, schedule: Q01DX009 (ip), vehicle: water) is reported as 0 of 6, the survivor count (dose: 50.0 mg/kg/injection, schedule: Q04DX003 (ip), vehicle: water) is reported as 2 of 6 and the survivor count (dose: 100.0 mg/kg/injection, schedule: Q01DX009 (ip), vehicle: water) is reported as 0 of 6. The survivor count (dose: 100.0 mg/kg/injection, schedule: Q04DX003 (ip), vehicle: water) was 0 of 6, the survivor count (dose: 200.0 mg/kg/injection, schedule: Q04DX003 (ip), vehicle: water) was 1 of 6 and the survivor count (dose: 400.0 mg/kg/injection, schedule: Q04DX003 (ip), vehicle: water) was 0 of 6.
`Nc1nc(N)c(N)c(Nc2ccc(Cl)cc2)n1` was tested, and the survivor count [9] was 0 of 3.
In the case of `CC(C)CCOC(CN)C(Cl)(Cl)Cl` (stereo not drawn), the T/C (dose: 100.0 mg/kg/injection, schedule: Q04DX002 (ip), vehicle: saline) is reported as 94, 101, 103, 106 % of control, the survivor count (dose: 200.0 mg/kg/injection, schedule: Q04DX002 (ip), vehicle: saline) is reported as 3 of 6 and 2 of 3 and the survivor count [1] is reported as 0 of 6. For the same compound, the survivor count (dose: 400.0 mg/kg/injection, schedule: Q04DX002 (ip), vehicle: saline) was 0 of 3 and 1 of 6 and the survivor count [2] was 0 of 6.
With `O=C1C(Cl)=C(Nc2nc3ccccc3s2)C(=O)c2ccccc21` the survivor count (dose: 100.0 mg/kg/injection, schedule: Q01DX001 (ip), vehicle: Klucel (hydroxypropylcellulose) (HPC)) was 3 of 3, the survivor count (dose: 200.0 mg/kg/injection, schedule: Q01DX001 (ip), vehicle: Klucel (hydroxypropylcellulose) (HPC)) was 0 of 3 and the survivor count (dose: 400.0 mg/kg/injection, schedule: Q01DX001 (ip), vehicle: Klucel (hydroxypropylcellulose) (HPC)) was 0 of 3.
For `CCc1c(O)c2c(c(O)c1C(C)=O)C(=O)c1c(cc(O)c(C(=O)O)c1C(=O)O)C2=O`, the survivor count [8] was 1 of 6.
In the case of `CC1(C)C[n+]2noc([O-])c2C(C)(C)C1`, the survivor count (dose: 2.3 mg/kg/injection, schedule: Q01DX009 (ip), vehicle: alcohol) is reported as 2 of 6, the survivor count (dose: 3.12 mg/kg/injection, schedule: Q04DX003 (ip), vehicle: alcohol) is reported as 5 of 6 and the survivor count (dose: 3.5 mg/kg/injection, schedule: Q01DX009 (ip), vehicle: alcohol) is reported as 1 of 6. The survivor count (dose: 5.2 mg/kg/injection, schedule: Q01DX009 (ip), vehicle: alcohol) was 0 of 6, the survivor count (dose: 6.25 mg/kg/injection, schedule: Q04DX003 (ip), vehicle: alcohol) was 0 of 6 and the survivor count (dose: 12.5 mg/kg/injection, schedule: Q04DX003 (ip), vehicle: alcohol) was 0 of 6. For the same compound, the survivor count (dose: 25.0 mg/kg/injection, schedule: Q04DX003 (ip), vehicle: alcohol) was 0 of 6, the survivor count (dose: 50.0 mg/kg/injection, schedule: Q04DX003 (ip), vehicle: alcohol) was 0 of 6 and the survivor count (dose: 100.0 mg/kg/injection, schedule: Q04DX003 (ip), vehicle: alcohol) was 0 of 6. For the same compound, the survivor count (dose: 200.0 mg/kg/injection, schedule: Q04DX003 (ip), vehicle: alcohol) was 0 of 6 and the survivor count (dose: 400.0 mg/kg/injection, schedule: Q04DX003 (ip), vehicle: alcohol) was 0 of 6.
For `O=C(O)C1C2CC3CC(C2)CC1C3` (stereo not drawn), the T/C [9] was 139 % of control.
For `CC(C)(CO)COS(=O)(=O)c1ccc(Br)cc1`, the survivor count (dose: 100.0 mg/kg/injection, schedule: Q01DX009 (ip), vehicle: saline with Tween-80) was 3 of 3 and the survivor count (dose: 200.0 mg/kg/injection, schedule: Q01DX009 (ip), vehicle: saline with Tween-80) was 3 of 3.
